The inconclusive results got no clear call from the source; some entries with a clear call stand among them for comparison. For some of these results: Potencies of inconclusive entries are doubtful fits and often do not repeat. The source made the active and inactive calls. The call rests on the fitted dose curve; in most records, active means well fitted curve in the direction sought with a large enough effect; inconclusive means small, poorly fitted or top-dose-only effect, or another doubt; inactive means no such curve, though single readings can be large; an effect the other way counts as inactive or inconclusive.
How the values were obtained:
[1] = Quantitative High-Throughput drug screen in 47 multiple myeloma cell lines against the NCATS MIPE library collection: JIM1_ECACC cell viability assay (AID 1918964; further: potency means the concentration at half of the fitted maximal effect); details: JIM1 myeloma viability, CellTiter-Glo ATP luminescence, 48 h; viability (% of DMSO): at 45.8 µM (top of the series)
Procedure, shortened: (§1)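 Inhibition of cell viability is measured here. Each line was plated at 500 cells per well, treated with MIPE 4.0 drugs, kept 48 hours at 37C, then assayed for ATP content by CellTiter-Glo luminescence.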

[2] = Quantitative High-Throughput drug screen in 47 multiple myeloma cell lines against the NCATS MIPE library collection: INA6_PLB cell viability assay (AID 1918965; further: potency means the concentration at half of the fitted maximal effect; nearly all actives have a fitted effect of over 55% in size); details: INA6 myeloma viability, CellTiter-Glo ATP luminescence, 48 h; viability (% of control): at 45.8 µM (top of the series)
Procedure, shortened: (§2)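 Myeloma cells (500 per well) were exposed to MIPE 4.0 compounds by pin transfer and incubated 48 hours at 37C, 5% CO2. Viability was read as ATP by CellTiter-Glo luminescence, normalised to DMSO (100%) and media-only (0%) wells.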

[3] = Quantitative High-Throughput drug screen in 47 multiple myeloma cell lines against the NCATS MIPE library collection: KMS12BM_JCRB cell viability assay (AID 1918971); further: nearly all actives have a fitted effect of over 35% in size; further: potency means the concentration at half of the fitted maximal effect
Procedure, shortened: (§3)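 Relative luminescence from CellTiter-Glo served as the viability signal, referenced to DMSO-treated (100%) and cell-free medium (0%) controls. Treatment lasted 48 hours at 37C with 500 cells per well.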

[4] = Quantitative High-Throughput drug screen in 47 multiple myeloma cell lines against the NCATS MIPE library collection: KMS12PE_JCRB cell viability assay (AID 1918972); details: KMS12PE myeloma viability, CellTiter-Glo ATP, 48 h; viability: at 45.8 µM (top of the series); further: nearly all actives have a fitted effect of over 30% in size; further: potency means the concentration at half of the fitted maximal effect
Procedure, shortened: as §2

[5] = Quantitative High-Throughput drug screen in 47 multiple myeloma cell lines against the NCATS MIPE library collection: KMS20_JCRB cell viability assay (AID 1918973); details: CellTiter-Glo ATP, 48 h; viability (% of DMSO): at 45.8 µM (top of the series); further: potency means the concentration at half of the fitted maximal effect; nearly all actives have a fitted effect of over 45% in size
Procedure, shortened: as §1

[6] = Quantitative High-Throughput drug screen in 47 multiple myeloma cell lines against the NCATS MIPE library collection: KMS21BM_JCRB cell viability assay (AID 1918974); details: ATP luminescence, 48 h; viability: at 45.8 µM (top of the series) unless noted; further: potency means the concentration at half of the fitted maximal effect
Procedure, shortened: as §1

[7] = Quantitative High-Throughput drug screen in 47 multiple myeloma cell lines against the NCATS MIPE library collection: KMS26_JCRB cell viability assay (AID 1918975); details: KMS26 myeloma cells viability, CellTiter-Glo ATP, 48 h; viability (% of DMSO): at 45.8 µM (top of the series); further: nearly all actives have a fitted effect of over 45% in size; further: potency means the concentration at half of the fitted maximal effect
Procedure, shortened: as §3

[8] = Quantitative High-Throughput drug screen in 47 multiple myeloma cell lines against the NCATS MIPE library collection: MOLP8_DSMZ cell viability assay (AID 1918977); details: MOLP8 myeloma viability, CellTiter-Glo ATP luminescence, 48 h; viability (% of control): at 45.8 µM (top of the series); further: nearly all actives have a fitted effect of over 45% in size; further: potency means the concentration at half of the fitted maximal effect
Procedure, shortened: (§4)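 Myeloma cells (500/well) treated with MIPE 4.0 compounds for 48 h at 37 °C, 5% CO2. Viability read as ATP via CellTiter-Glo luminescence after 5 min at RT; DMSO-only wells = 100%, media-only = 0% viability.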

[9] = Quantitative High-Throughput drug screen in 47 multiple myeloma cell lines against the NCATS MIPE library collection: OCIMY1_PLB cell viability assay (AID 1918979); further: nearly all actives have a fitted effect of over 35% in size; further: potency means the concentration at half of the fitted maximal effect
Procedure, shortened: as §4

[10] = Quantitative High-Throughput drug screen in 47 multiple myeloma cell lines against the NCATS MIPE library collection: MM1R_ATCC cell viability assay (AID 1918981); further: nearly all actives have a fitted effect of over 35% in size; further: potency means the concentration at half of the fitted maximal effect
Procedure, shortened: as §4

[11] = Quantitative High-Throughput drug screen in 47 multiple myeloma cell lines against the NCATS MIPE library collection: LP1_DSMZ cell viability assay (AID 1918982); further: nearly all actives have a fitted effect of over 35% in size; further: potency means the concentration at half of the fitted maximal effect
Procedure, shortened: as §4

[12] = Quantitative High-Throughput drug screen in 47 multiple myeloma cell lines against the NCATS MIPE library collection: KMS28PE_JCRB cell viability assay (AID 1918983)
Procedure, shortened: as §4

[13] = Quantitative High-Throughput drug screen in 47 multiple myeloma cell lines against the NCATS MIPE library collection: Karpas25_ECACC cell viability assay (AID 1918968); details: Karpas25 myeloma viability, CellTiter-Glo ATP, 48 h; viability (% of control): at 45.8 µM (top of the series)
Procedure, shortened: as §1

[14] = Quantitative High-Throughput drug screen in 47 multiple myeloma cell lines against the NCATS MIPE library collection: KMS27_JCRB cell viability assay (AID 1918970); details: KMS27 myeloma cells, CellTiter-Glo ATP viability, 48 h; viability (% of DMSO): at 45.8 µM (top of the series); further: nearly all actives have a fitted effect of over 30% in size
Procedure, shortened: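 KMS27_JCRB myeloma cells, 500 per well, exposed 48 h at 37 C, 5% CO2 to MIPE 4.0 compounds. Viability from ATP by CellTiter-Glo luminescence, normalized to DMSO (100%) and medium-only (0%) wells.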

[15] = Quantitative High-Throughput drug screen in 47 multiple myeloma cell lines against the NCATS MIPE library collection: MMM1_PLB cell viability assay (AID 1918976)
Procedure, shortened: as §4

[16] = Quantitative High-Throughput drug screen in 47 multiple myeloma cell lines against the NCATS MIPE library collection: NCIH929_DSMZ cell viability assay (AID 1918978); further: nearly all actives have a fitted effect of over 35% in size; further: potency means the concentration at half of the fitted maximal effect
Procedure, shortened: as §4

[17] = Quantitative High-Throughput drug screen in 47 multiple myeloma cell lines against the NCATS MIPE library collection: JJN3_DSMZ cell viability assay (AID 1918966; further: potency means the concentration at half of the fitted maximal effect; nearly all actives have a fitted effect of over 50% in size); details: JJN3 myeloma cells viability, CellTiter-Glo ATP, 48 h; viability, % of DMSO: at 45.8 µM (top of the series)
Procedure, shortened: as §1

[18] = Quantitative High-Throughput drug screen in 47 multiple myeloma cell lines against the NCATS MIPE library collection: H1112_PLB cell viability assay (AID 1918967; further: nearly all actives have a fitted effect of over 30% in size; further: potency means the concentration at half of the fitted maximal effect); details: H1112 myeloma cells viability, ATP luminescence, 48 h; viability: at 45.8 µM (top of the series)
Procedure, shortened: as §1

[19] = Quantitative High-Throughput drug screen in 47 multiple myeloma cell lines against the NCATS MIPE library collection: MM1S_ATCC cell viability assay (AID 1918980); further: nearly all actives have a fitted effect of over 45% in size; further: potency means the concentration at half of the fitted maximal effect
Procedure, shortened: as §4

SMILES | Potency [1] | Potency [2] | Potency [3] | Potency [4] | Potency [5] | Potency [6] | Potency [7] | Potency [8] | Potency [9] | Potency [10] | Potency [11] | Potency [12] | Potency [13] | Potency [14] | Potency [15] | Potency [16] | viability (% of DMSO) [1] | Potency [17] | Potency [18] | Potency [19]
CN(C)Cc1ccc(-c2nc3cccc4c3n2CCNC4=O)cc1 | active: 11.8 µM | active: 16.6 µM | inconclusive: 37.2 µM [cytotoxic, single point] | inconclusive: 37.2 µM [cytotoxic, single point] | inconclusive: 16.6 µM [cytotoxic, partial curve, poor fit] | inconclusive: 23.5 µM [cytotoxic, partial curve, poor fit] | inconclusive: 37.2 µM [cytotoxic, single point] | active: 13.2 µM | inactive | active: 20.9 µM | active: 23.5 µM | inconclusive: 37.2 µM [cytotoxic, single point] |  |  |  |  |  |  |  | 
C[C@H]1[C@H](NC(=O)C(=NOC(C)(C)C(=O)O)c2csc(N)n2)C(=O)N1S(=O)(=O)O | inconclusive: 2.09 µM [cytotoxic, partial curve, poor fit] | inconclusive: 0.0132 µM [rising, full curve, poor fit] | active: 1.48 µM |  |  | inconclusive: 0.0017 µM [cytotoxic, full curve, poor fit] | inactive |  |  |  |  | inconclusive: 0.0074 µM [cytotoxic, full curve, poor fit] | inconclusive: 37.2 µM [cytotoxic, single point] | inactive | inconclusive: 5.9 µM [cytotoxic, partial curve, poor fit] | inactive |  |  |  | 
CON(C)C(=O)N1N=C(c2cc(F)ccc2F)S[C@]1(CCCN)c1ccccc1 |  |  | inactive |  | inconclusive: 26.4 µM [cytotoxic, single point] |  | inactive | inactive |  | inactive |  |  |  |  | inconclusive: 23.5 µM [cytotoxic, single point] |  | inconclusive: 27.2% [cytotoxic] | inconclusive: 37.2 µM [cytotoxic, single point] | inactive | inactive
O=C(O)C(O)Cc1ccc(O)c(O)c1 (configuration not stated) | inactive | inconclusive: 0.332 µM [cytotoxic, full curve, poor fit] | inconclusive: 37.2 µM [cytotoxic, partial curve, poor fit] | inactive |  | active: 0.0083 µM |  |  | inconclusive: 33.2 µM [cytotoxic, single point] |  | inconclusive: 33.2 µM [cytotoxic, single point] | active: 23.5 µM | inconclusive: 2.96 µM [cytotoxic, partial curve, poor fit] |  |  |  |  |  |  | 
O=c1cc(-c2ccc(O)c(O)c2)oc2cc(O)cc(O)c12 | inconclusive: 0.001 µM |  | inactive |  | inconclusive: 16.6 µM [cytotoxic, partial curve, poor fit] | active: 2.09 µM | inactive | inconclusive: 0.187 µM [rising, full curve, poor fit] | inconclusive: 11.8 µM [rising, single point] |  | inconclusive: 26.4 µM [cytotoxic, single point] | inconclusive: 0.209 µM [rising, full curve] | inconclusive: 37.2 µM [cytotoxic, single point] |  | inconclusive: 0.0332 µM [rising, full curve] |  |  | inconclusive: 0.59 µM [rising, full curve, poor fit] | inconclusive: 26.4 µM [cytotoxic, single point] | inconclusive: 33.2 µM [cytotoxic, single point]
CCn1c(C(=O)N(C2CC2)C2CC2)cc2c3c(ncn3C)c(Nc3cc(C)n(C)n3)nc21 | inconclusive: 8.33 µM [cytotoxic, partial curve, poor fit] | active: 16.6 µM | inactive |  |  | inactive | inactive | inconclusive: 7.43 µM [rising, partial curve, poor fit] |  |  | inactive | inconclusive: 2.96 µM [rising, full curve, poor fit] | inconclusive: 11.8 µM [cytotoxic, single point] |  | inconclusive: 0.0264 µM [rising, full curve] | inconclusive: 33.2 µM [cytotoxic, single point] |  |  |  | inactive

Reference: PubChem BioAssay (NCATS)
